# Screening data

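Uptake of anthrax lethal toxin into cultured cells, read by FRET (460/530 nm ratio) and reported from the 460 nm channel; the cell line is not named here. Each compound was tested as a concentration series from about 0.0005 to 40 µM. The number is the fitted AC50 of the 460 nm signal alone; lower values mean a more potent effect. A falling signal goes with compounds filed as inhibitors or cytotoxic, a rising one with activators or fluorescent compounds (inferred from the filed classes).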

Values are in nM. Common to all entries: measured here: 460 nm channel. This is a side read-out of the assay, for part of the compounds, not drawn at random. A potency from a partial, single-point or poor curve is only a rough figure. The first word of each remark tells which way the curve ran; it can be opposite to the aim of the assay.

| structure | AC50 (nM) | curve as filed |
|---|---|---|
| `CCN(CC)CCOC(=O)c1c(C)oc2ccc(OC)cc12` | 6310 | falling, partial curve |
| `CCOC(=O)C1CCN(S(=O)(=O)c2cccc(-c3cn4cccnc4n3)c2)CC1` | 5012 | rising, single point |
| `COc1ccc(C)cc1NC(=O)C1CCCN1S(=O)(=O)c1ccc2c(c1)CCC(=O)N2` (stereo not shown) | 10000 | falling, partial curve |
| `COc1ccc2nc(N3CCC(O)CC3)c(C#N)cc2c1` | 10000 | rising, partial curve |
| `CC(C)c1ccc(OCc2nc(-c3ccccn3)no2)c(Br)c1` | 15848 | falling, partial curve, poor fit |
| `O=[N+]([O-])c1ccc(C2=Nn3c(nnc3-c3ccc(Cl)cc3)SC2)o1` | 3981 | rising, partial curve |
| `COc1ccc(C(=O)c2oc3ccc(OC)cc3c2N)cc1` | 7943 | rising, single point |
| `COc1ccc(-n2c(=O)cnc3cnc(Oc4ccccc4)nc32)cc1` | 5012 | rising, single point |
| `CCc1cc(C)cc(OCCNC(=O)c2ncn[nH]2)c1` | 12589 | falling, partial curve, poor fit |
| `CN=C(SCc1cc2c(cc1Cl)OCO2)c1c(O)n(C)c(=O)n(C)c1=O` | 2512 | rising, full curve |
| `NS(=O)(=O)c1ccc(-n2nncc2C23CC4CC(CC(C4)C2)C3)cc1` | 7943 | rising, partial curve |
| `O=C(c1ccc(CNc2c(N3CCCC3)c(=O)c2=O)cc1)N1CCc2ccccc2C1` | 12589 | rising, partial curve |
| `N#Cc1cccc(NC(=O)N2CCC3(CC2)CCN(C(=O)c2ccco2)CC3)c1` | 3981 | rising, partial curve |
| `c1ccc(C(c2nnnn2Cc2ccco2)N2CCN(C3CCCC3)CC2)cc1` (stereo not shown) | 5012 | falling, partial curve |
| `CC1(C)C(=O)C2(CCCCC2)C(=O)OC1c1cccs1` (stereo not shown) | 12589 | falling, partial curve |
| `CCOc1cc(S(=O)(=O)NC2CCCCCC2)ccc1F` | 6310 | falling, partial curve |
| `N#CCCn1c(=O)c(-c2cccs2)nc2cnc(N3CCOCC3)nc21` | 6310 | rising, partial curve |
| `O=C(NCC(=O)N(CC1CCCO1)C(C(=O)NC1CCCC1)c1ccc(F)cc1)c1ccco1` (stereo not shown) | 5012 | rising, single point |
| `CCCCc1ccc(NC(=O)N[C@H](C(=O)O)C(C)C)cc1` | 3.162 | falling, full curve, poor fit |
| `COc1cc(CNC(=O)CCCCCCC(C)C)ccc1O` | 31622 | falling, partial curve, poor fit |
| `CC1(C)CC(=O)C(C=NCCCn2ccnc2)=C(O)C1` | 3.981 | falling, full curve |
| `CCCC(=O)OCCn1c(Br)nc2c1c(=O)[nH]c(=O)n2C` | 10000 | rising, partial curve |
| `CCCn1c(C)c(C(=O)c2cccc3ccccc23)c2ccccc21` | 6310 | falling, full curve |
| `CC1CN(c2nc3c(c(=O)n(Cc4ccc(Cl)c(Cl)c4)c(=O)n3C)n2C)CC(C)O1` (stereo not shown) | 6310 | rising, partial curve |
| `Nc1nonc1C(=O)NCCNCc1cc(Br)ccc1OCc1ccccc1F` | 39.81 | falling, full curve |
| `CC1Cc2ccccc2N1S(=O)(=O)c1cccs1` (stereo not shown) | 1995 | falling, partial curve |
| `Cc1cc(-c2cc(C)c(N)c(C)c2)cc(C)c1N` | 31622 | falling, partial curve |
| `Cc1nc(N=Nc2cc(S(=O)(=O)O)c3cc([N+](=O)[O-])cc(S(=O)(=O)O)c3c2)c(COP(=O)(O)O)c(C=O)c1O` | 31622 | falling, partial curve |
| `CC(=O)N(c1ccc2oc(=O)sc2c1)S(=O)(=O)c1ccccc1` | 3162 | falling, full curve |
| `CN(C)c1ncc2nc(-c3cccs3)c(=O)n(CCC#N)c2n1` | 12589 | rising, partial curve |
| `Cc1ccc(SCc2[nH]nc3c2C(c2ccco2)C(C#N)=C(N)O3)cc1` (stereo not shown) | 12589 | falling, partial curve |
| `O=C(NCc1cccnc1)Nc1ccc(F)cc1F` | 10 | falling, full curve, poor fit |
| `COc1ccc(-c2nnn(CC(=O)c3ccccc3)n2)cc1OC` | 25118 | rising, single point |
| `Cc1ccccc1-n1c(=O)cc(N2CCC3(CC2)OCCO3)[nH]c1=O` | 316.2 | falling, full curve, poor fit |
| `COC(=O)CC[C@@H](C)[C@H]1CC[C@H]2[C@H]3CC[C@H]4C[C@@H]5CC[C@@]4(C)C3(O5)[C@@H](Br)[C@@H](Br)[C@@]12C` | 3162 | falling, single point |
| `c1ccc(C2COC(c3cccs3)=N2)cc1` (stereo not shown) | 631 | rising, full curve, poor fit |
| `COc1ccc(-c2cc(C(=O)Nc3cc(OC)c(OC)c(OC)c3)no2)cc1OC` | 39.81 | falling, full curve, poor fit |
| `O=C(Nc1ccc([N+](=O)[O-])cc1Cl)c1cc(Cl)ccc1O` | 199.5 | falling, full curve |
| `Cc1cccc(N2CCN(C(=O)c3cc4c(=O)n(C)c5ccccc5c4n3C)CC2C)c1` (stereo not shown) | 7943 | falling, partial curve |
| `COc1ccc(C(c2nnnn2CC2CCCO2)N2CCN(c3ccc(F)cc3)CC2)cc1` (stereo not shown) | 5012 | rising, single point |
| `COC(=O)c1c(NC(=O)c2cccs2)sc2c1CCC(C)C2` (stereo not shown) | 25118 | rising, single point |
| `CCOC(=O)C1CCN(C(=O)C2CC(=O)N(c3ccc(C)cc3)C2)CC1` (stereo not shown) | 3.981 | falling, full curve |
| `COCCn1c(=O)c(-c2ccc(OC)cc2)nc2cnc(Oc3cccc(Cl)c3)nc21` | 12589 | rising, partial curve |
| `CS(=O)(=O)OCCCCOS(C)(=O)=O` | 31622 | falling, partial curve |
| `CCOC(=O)c1ccc(NC(=O)c2ccc(C)c(S(=O)(=O)N3CCOCC3)c2)cc1` | 10000 | falling, partial curve |
| `NC(N)=NC(=O)Cc1c(Cl)cccc1Cl` | 10000 | falling, full curve |
| `COc1ccc(Nc2ccc3c(c2)=NC2(CCCCC2)[N+]=3[O-])cc1` | 19952 | falling, single point |
| `Cc1ccc(C(C)C)c(OCC(=O)Nc2ccccc2N2CCN(C)CC2)c1` | 12589 | falling, single point |
| `COc1ccc(Br)cc1CNC(=O)C1CCCN(S(C)(=O)=O)C1` (stereo not shown) | 7943 | falling, partial curve |
| `Cc1ccc(-n2nnnc2SC(C)C(=O)Nc2ccc(Cl)cn2)cc1` (stereo not shown) | 5012 | falling, single point |
| `COc1ccc(C2=NOC(Cn3c(Cc4ccc(Cl)cc4)nc4c3c(=O)n(C)c(=O)n4C)C2)cc1` (stereo not shown) | 3981 | rising, full curve |
| `Cc1cccc(-c2cc3nc4c(c(N5CCOCC5)n3n2)CCCC4)c1` | 25118 | falling, single point |
| `CCOc1ccccc1Nc1ncnc2c1cnn2-c1ccccc1` | 31622 | falling, single point |
| `CC1=CC(=C(C#N)c2nc3ccccc3s2)C=C(C)N1Cc1ccco1` | 2512 | rising, single point |
| `CC1=C(/C=C/C(C)=C/C=C/C(C)=C/C(=O)Nc2ccc(O)cc2)C(C)(C)CCC1` | 10000 | falling, full curve |
| `Clc1cccc(Nc2ncnc3c2cnn3-c2ccccc2)c1` | 3162 | falling, full curve |
| `COc1ccc(NC(=O)N(C2CCCCC2)C2CCN(C(C)C)CC2)c(OC)c1` | 1995 | falling, full curve |
| `Cc1ccc(CNC(=O)[C@H](C)[C@H]2C[C@]2(C)[C@H](NC(=O)OCc2ccccc2)c2ccccc2)c(F)c1F` | 5012 | rising, single point |
| `Cc1cccc(C2=NCC(=O)N(CC(=O)NCc3ccco3)c3sc4c(c32)CCCC4)c1` | 12589 | falling, single point |
| `O=S(=O)(Nc1ccc(S(=O)(=O)N2CCCCC2)cc1)c1cccs1` | 631 | falling, single point |

The last 5 entries again:

structure,AC50 (nM),curve as filed
Clc1cccc(Nc2ncnc3c2cnn3-c2ccccc2)c1,3162,"falling, full curve"
COc1ccc(NC(=O)N(C2CCCCC2)C2CCN(C(C)C)CC2)c(OC)c1,1995,"falling, full curve"
Cc1ccc(CNC(=O)[C@H](C)[C@H]2C[C@]2(C)[C@H](NC(=O)OCc2ccccc2)c2ccccc2)c(F)c1F,5012,"rising, single point"
Cc1cccc(C2=NCC(=O)N(CC(=O)NCc3ccco3)c3sc4c(c32)CCCC4)c1,12589,"falling, single point"
O=S(=O)(Nc1ccc(S(=O)(=O)N2CCCCC2)cc1)c1cccs1,631,"falling, single point"

Source: PubChem BioAssay AID912 (NCATS, 2007).